A unit is not stated for every read-out.
Key:
[1] = Fluorescence measurements with MC540, TMA-DPH and DPH probes in liposome membranes; settings: PC liposomes
Experimental: Small unilamellar liposomes (SUV) consisted of phosphatidylcholine (egg-PC) were prepared in accordance with the methodology described by Gabrielska and Oszmiański. The lipids were dissolved in chloroform (100 mg/mL), evaporated to dryness under nitrogen and under vacuum for another 60 min. Subsequently, a phosphate buffer […] of pH 7.4 was added and liposomes were formed by mechanical shaking. Then SUVs were formed using a 20 kHz sonicator for 15 min. During sonication the samples were thermostated at 0–2 °C. In the study, PC liposomes at a concentration of 0.1 mg/mL in phosphate buffer (pH 7.4) were used. Liposomes prepared according to the presented-above procedure were used to determine the antioxidative activity and in fluorometric studies.
The Q 7-MeGlu and Q effect on the hydrophilic and hydrophobic properties of the membrane was determined using the fluorometric method applying the MC540, TMA-DPH and DPH fluorescence probes according to the procedure described by Strugała et al.. Merocyanine 540 (MC540) is a probe that partitions into the membrane and orients parallel to the glycerol backbones of the lipids. The fluorescence intensity of MC540 emission was determined and expressed as relative intensity change in relation to control as a function of studied compounds concentration. The TMA-DPH and DPH probes are supposed to distribute in the hydrophobic part of the bilayer. All the fluorescent probes were used at 1 μM concentration. The DPH and TMA-DPH stock solutions were prepared in DMF, while the probe MC540 was dissolved in methanol. Liposomes were prepared according to procedure described in Section 3.6.1. The control samples contained liposomes and a fluorescent probe, while the study samples contained compounds (Q 7-MeGlu or Q at final concentrations 1, 5 and 10 µM). Liposomes suspended in buffer were incubated for 30 min with probe. In next step, Q 7-MeGlu or Q were added at final concentrations 1, 5 and 10 μM and incubated for 10 min. The excitation and emission wavelengths were as follows: for MC540 λex = 540 nm and λem = 590 nm, for TMA-DPH λex = 340 nm and λem = 430 nm, and for DPH probe λex = 360 nm and λem = 425 nm. Fluorescence anisotropy for TMA-DPH and DPH was calculated using the following equation [64]:(5) A=I∥−GI⊥/I∥+2GI⊥ where I∥ and I⊥ are fluorescence intensities observed in directions parallel and perpendicular, respectively to the polarization plane of the exciting wave. G is the apparatus constant dependent on the emission wavelength.
The fluorescence experiment was conducted using a Cary Eclipse fluorimeter (Varian, Palo Alto, CA, USA). Measurements were carried out at room temperature (approx. 20 °C). The experiment was performed in six replicates (n = 6).

[2] = 1H-NMR study of interaction with DPPC liposomes (PrCl3 shift reagent); settings: 0.24 mM compound, DPPC 36 mM, 325 K
Experimental: The ^1H-NMR method of investigating the Q 7-MeGlu and Q interaction with liposomes was described earlier by Gabrielska et al. with minor modifications. Mixtures of phospholipids (DPPC) with studied compounds were co-dissolved in a chloroform/methanol mixture (55:1 v/v) at the respective concentrations. The lipid concentration in the sample was 36 mM and that of Q 7-MeGlu and Q was 0.24 mM […]. The samples were first evaporated under a stream of nitrogen and then in a vacuum (overnight). Then the samples were hydrated with D2O and vigorously shaken (15 min) at temperature above the main phase transition of lipid (41 °C) until optical homogeneity of the mixture was reached. Next, the lipid suspension was sonicated with a 20 kHz sonicator (20 kHz, Sonic, Italy) to yield a homogeneous lipid dispersion. Briefly, before the measurements a 4 mM praseodymium trichloride (PrCl3 × 6H2O) in heavy water solution […] was added to the sample of 0.6 mL liposome suspension. ^1H-NMR parameters were as follows: spectral window 12.019 Hz, digital resolution 0.183 Hz, acquisition and delay times 2.73 s and 1.00 s, respectively, and acquisition temperature 325 K. The experiment was performed in two replicates.

[3] = test system: T1, human serum albumin (HSA); assay: Binding to human serum albumin (fluorescence quenching); settings: for ∆H / ∆S: Van't Hoff, 300–315 K
T1 construct: purchased Sigma-Aldrich
Description: Fluorescence quenching induced by studied molecules is described using the well-known Stern-Volmer equation [53]:(1) F0/F=1+Kqτ0[Qu]=1+KSV[Qu] where: F0 and F are HSA fluorescence intensities before and after adding quencher, respectively, Kq is a bimolecular quenching constant, τ0 is life time of the fluorophore in the absence of quencher (the fluorescence life time of a biopolymer is about 5 × 10^−9 s, [Qu] is the quencher concentration, and KSV is the Stern–Volmer quenching constant (KSV = Kq × τ0). The plot of F0/F against [Qu] at 310 K is shown in Figure 3A,B. The Stern–Volmer plots are evidently linear in the 1–16 μM range of concentration for studied compounds.
The value of the binding constant Ka is crucial for understanding the distribution of the drug in plasma. A strong binding produces a decrease in plasma concentrations, […] the distribution and the pharmacological effect of the compound [55]. The apparent binding constant (Kb) and number of binding sites (n) can be calculated using the following equation:(2) log(F0−F/F)=logKb+nlog[Qu]
The interaction forces between a drug and a biomacromolecule may include hydrophobic forces, electrostatic interactions, van der Waals interactions, hydrogen bonds, etc. The thermodynamic parameters of binding reaction are the main evidence for confirming a binding force. In order to elucidate the binding mode, the binding constant for flavonoid–HSA complex formation was evaluated at four different temperatures. The thermodynamic parameters of the binding process can be calculated using the Van’t Hoff equation [60]:(3) lnKb=−ΔH/RT+ΔS/R
The enthalpy change ∆H is calculated on the basis of the slope of lnKb vs. […] plot. The free-energy change ΔG is estimated on the basis of the following equation:(4) ΔG=ΔH−TΔS=−RTlnKb where: ΔH ΔG and ΔS are enthalpy, free enthalpy and entropy change, respectively. R is the gas constant 8.314 J·mol^−1·K^−1.
Analysis of Q 7-MeGlu and Q interaction with human serum albumin (HSA) was performed according to the procedure described by Strugała et al.. The fluorescence measurements were performed on a Cary Eclipse fluorimeter equipped with 1.0 cm quartz cells and a thermostat bath. All quenching experiments were performed at 300, 305, 310 and 315 K for HSA in a phosphate buffer solution of pH 7.4 and final concentration 1.5 × 10^−5 M. The excitation wavelength was set at 280 nm (excitation of the Trp and Tyr), and the emission spectra were read at 285–460 nm. The excitation and emission slits were both set to 5 nm. Our method consisted in tracking the quenching of natural HSA fluorescence caused by Q 7-MeGlu and Q (of final concentrations 1, 2, 4, 6, 8, 10, 12, 14 and 16 µM) added successively. The stock solutions of Q 7-MeGlu and Q were prepared by dissolving in methanol. Control sample contained appropriate amount of methanol. […] The experiment was performed in three independent replicates (n = 3).

With CO[C@H]1[C@H](O)[C@@H](O)[C@H](Oc2cc(O)c3c(=O)c(O)c(-c4ccc(O)c(O)c4)oc3c2)O[C@@H]1CO [Q 7-MeGlu, quercetin 7-O-β-D-(4″-O-methyl)glucopyranoside] the “DPH Anisotropy Change from Control” value ([1]; 1 µM compound) was 0.0614 ± 0.0359, the “MC540 Intensity Change from Control” value ([1]; 1 µM compound) was −0.0269 ± 0.0137 and the “TMA-DPH Anisotropy Change from Control” value ([1]; 1 µM compound) was 0.0518 ± 0.0144. The “DPH Anisotropy Change from Control” value ([1]; 5 µM compound) was 0.1257 ± 0.0193, the “MC540 Intensity Change from Control” value ([1]; 5 µM compound) was −0.0955 ± 0.0010 and the “TMA-DPH Anisotropy Change from Control” value ([1]; 5 µM compound) was 0.0845 ± 0.0218. For the same molecule, the “DPH Anisotropy Change from Control” value ([1]; 10 µM compound) was 0.2674 ± 0.0584, the “MC540 Intensity Change from Control” value ([1]; 10 µM compound) was −0.1240 ± 0.0189 and the “TMA-DPH Anisotropy Change from Control” value ([1]; 10 µM compound) was 0.1005 ± 0.0328. The Iout/Iin [2] was 0.8646, the “Δδ (splitting of the ammonium group band)” value [2] was 0.1000 ppm and the “ν -CH2 (full width at half height)” value [2] was 0.1179 ppm. The “ν -CH3 (full width at half height)” value [2] was 0.0627 ppm, the “ν -N+-(CH3)3in (full width at half height)” value [2] was 0.0323 ppm and the “ν -N+-(CH3)3out (full width at half height)” value [2] was 0.0882 ppm. The “n (number of binding sites)” value ([3]; T 300 K) was 1.082 ± 0.025, the “∆G” value ([3]; T 300 K) was -12.380 ± 0.286 kJ/M and the “n (number of binding sites)” value ([3]; T 305 K) was 1.024 ± 0.055. The “∆G” value ([3]; T 305 K) was -11.810 ± 0.724 kJ/M, the “n (number of binding sites)” value ([3]; T 310 K) was 0.634 ± 0.026 and the “∆G” value ([3]; T 310 K) was -7.323 ± 0.343 kJ/M. For the same molecule, the “n (number of binding sites)” value ([3]; T 315 K) was 0.437 ± 0.011, the “∆G” value ([3]; T 315 K) was -5.196 ± 0.151 kJ/M and the “∆H” value [3] was -164.46 ± 5.590 kJ/M. For the same molecule, the “∆S” value [3] was −504.768 ± 18.919 J/(M·K).

With O=c1c(O)c(-c2ccc(O)c(O)c2)oc2cc(O)cc(O)c12 [Quercetin, 3,3′,4′,5,7-pentahydroxyflavone] the “DPH Anisotropy Change from Control” value ([1]; 1 µM compound) was 0.2943 ± 0.0708, the “MC540 Intensity Change from Control” value ([1]; 1 µM compound) was −0.2890 ± 0.0289 and the “TMA-DPH Anisotropy Change from Control” value ([1]; 1 µM compound) was 0.1619 ± 0.0133. For the same molecule, the “DPH Anisotropy Change from Control” value ([1]; 5 µM compound) was 0.7464 ± 0.0649, the “MC540 Intensity Change from Control” value ([1]; 5 µM compound) was −0.4585 ± 0.0660 and the “TMA-DPH Anisotropy Change from Control” value ([1]; 5 µM compound) was 0.2449 ± 0.0122. The “DPH Anisotropy Change from Control” value ([1]; 10 µM compound) was 0.9661 ± 0.0511, the “MC540 Intensity Change from Control” value ([1]; 10 µM compound) was −0.5580 ± 0.0012 and the “TMA-DPH Anisotropy Change from Control” value ([1]; 10 µM compound) was 0.3708 ± 0.0674. For the same molecule, the Iout/Iin [2] was 1.3305, the “Δδ (splitting of the ammonium group band)” value [2] was 0.1560 ppm and the “ν -CH2 (full width at half height)” value [2] was 0.1181 ppm. For the same molecule, the “ν -CH3 (full width at half height)” value [2] was 0.0604 ppm, the “ν -N+-(CH3)3in (full width at half height)” value [2] was 0.0261 ppm and the “ν -N+-(CH3)3out (full width at half height)” value [2] was 0.0799 ppm. For the same molecule, the “n (number of binding sites)” value ([3]; T 300 K) was 1.048 ± 0.145, the “∆G” value ([3]; T 300 K) was -13.444 ± 1.962 kJ/M and the “n (number of binding sites)” value ([3]; T 305 K) was 1.014 ± 0.176. The “∆G” value ([3]; T 305 K) was -13.167 ± 2.319 kJ/M, the “n (number of binding sites)” value ([3]; T 310 K) was 0.801 ± 0.055 and the “∆G” value ([3]; T 310 K) was -10.755 ± 0.812 kJ/M. The “n (number of binding sites)” value ([3]; T 315 K) was 0.645 ± 0.023, the “∆H” value [3] was -132.616 ± 3.859 kJ/M and the “∆S” value [3] was −390.267 ± 12.102 J/(M·K).
